{"source": "paper PMC8038999", "binders": {"B1": {"name": "flotillin-2 (protein, UniProt Q14254 1-428)", "chain": "MGNCHTVGPNEALVVSGGCCGSDYKQYVFGGWAWAWWCISDTQRISLEIMTLQPRCEDVETAEGVALTVTGVAQVKIMTEKELLAVACEQFLGKNVQDIKNVVLQTLEGHLRSILGTLTVEQIYQDRDQFAKLVREVAAPDVGRMGIEILSFTIKDVYDKVDYLSSLGKTQTAVVQRDADIGVAEAERDAGIREAECKKEMLDVKFMADTKIADSKRAFELQKSAFSEEVNIKTAEAQLAYELQGAREQQKIRQEEIEIEVVQRKKQIAVEAQEILRTDKELIATVRRPAEAEAHRIQQIAEGEKVKQVLLAQAEAEKIRKIGEAEAAVIEAMGKAEAERMKLKAEAYQKYGDAAKMALVLEALPQIAAKIAAPLTKVDEIVVLSGDNSKVTSEVNRLLAELPASVHALTGVDLSKIPLIKKATGVQV"}}, "target": "T1, LecA-biotin (biotinylated Pseudomonas aeruginosa lectin LecA) (Pseudomonas aeruginosa) (UniProt Q05097)", "T1 sequence (chain, biotin (NHS-ester conjugation; sites not stated))": "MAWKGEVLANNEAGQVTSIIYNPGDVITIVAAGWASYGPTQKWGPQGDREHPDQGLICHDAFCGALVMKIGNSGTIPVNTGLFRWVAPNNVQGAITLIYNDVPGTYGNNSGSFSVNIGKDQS", "assay": "pull-down; H1299 cells treated with 100 nM LecA-biotin for indicated times, lysed (25 mM Tris/HCl pH 7.4, 150 mM NaCl, 1 mM EDTA, 1% NP40, 5% glycerol), magnetic streptavidin beads 3 h at 4 °C, eluates immunoblotted; only the target purified", "note": "These are yes or no findings as the source states them, for the method shown. In cells and extracts the contact can be indirect. Some binding calls cover weakened binding; strength is not graded here.", "data": [{"binder": "B1", "values": [{"measurement": "binding", "result": "binds"}]}]}
